# Drug screen on melanoma cell lines: apoptosis marker

Data from the primary screen of doi:10.1371/journal.pone.0140310, rounded.

Drugs:
indole-3-carbinol, 4 µM: OCc1c[nH]c2ccccc12
vismodegib, 5 µM: CS(=O)(=O)c1ccc(C(=O)Nc2ccc(Cl)c(-c3ccccn3)c2)c(Cl)c1
VX-702, 2 µM: NC(=O)c1ccc(N(C(N)=O)c2c(F)cccc2F)nc1-c1ccc(F)cc1F
fludarabine, 1 µM: Nc1nc(F)nc2c1ncn2[C@@H]1O[C@H](CO)[C@@H](O)[C@@H]1O
sunitinib, 2 µM: CCN(CC)CCNC(=O)c1c(C)[nH]c(/C=C2\C(=O)Nc3ccc(F)cc32)c1C
A-769662, 10 µM: N#Cc1c(O)c2c(-c3ccc(-c4ccccc4O)cc3)csc2[nH]c1=O
tanespimycin, 0.01 µM: C=CCNC1=C2C[C@@H](C)C[C@H](OC)[C@H](O)[C@@H](C)/C=C(\C)[C@H](OC(N)=O)[C@@H](OC)/C=C\C=C(/C)C(=O)NC(=CC1=O)C2=O
dovitinib, 0.5 µM: CN1CCN(c2ccc3nc(-c4c(N)c5c(F)cccc5[nH]c4=O)[nH]c3c2)CC1
vorinostat, 0.4 µM: O=C(CCCCCCC(=O)Nc1ccccc1)NO
T0901317, 7 µM: O=S(=O)(c1ccccc1)N(CC(F)(F)F)c1ccc(C(O)(C(F)(F)F)C(F)(F)F)cc1
perifosine, 2 µM: CCCCCCCCCCCCCCCCCCOP(=O)([O-])OC1CC[N+](C)(C)CC1
NVP-TAE684, 0.4 µM: COc1cc(N2CCC(N3CCN(C)CC3)CC2)ccc1Nc1ncc(Cl)c(Nc2ccccc2S(=O)(=O)C(C)C)n1
selumetinib, 0.075 µM: Cn1cnc2c(F)c(Nc3ccc(Br)cc3Cl)c(C(=O)NOCCO)cc21
pioglitazone, 10 µM: CCc1ccc(CCOc2ccc(CC3SC(=O)NC3=O)cc2)nc1 (stereo not shown)
OSI-906, 2 µM: C[C@]1(O)C[C@@H](c2nc(-c3ccc4ccc(-c5ccccc5)nc4c3)c3c(N)nccn32)C1
lestaurtinib, 0.02 µM: C[C@]12O[C@H](C[C@]1(O)CO)n1c3ccccc3c3c4c(c5c6ccccc6n2c5c31)CNC4=O
FH535, 5 µM: Cc1cc([N+](=O)[O-])ccc1NS(=O)(=O)c1cc(Cl)ccc1Cl

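Human melanoma cell lines in 1,536-well plates were treated with a pair of drugs for 72 h, then fixed, stained and imaged. Each value is the cleaved-PARP-positive fraction of nuclei relative to DMSO-treated wells, in %, so that 100 equals the control and higher values mean more apoptosis. Every drug was used at one fixed concentration, the higher of two screened. These are primary screening values without error estimates. Basal and induced levels differ widely between cell lines.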
This is part of the screen, not chosen by result.

| Pair | UACC-62 | WM451Lu | SK-MEL-28 | SK-MEL-2 | IPC-298 |
|---|---|---|---|---|---|
| selumetinib and lestaurtinib | 356 | 246 | 56.2 | 378 | 170 |
| vismodegib and indole-3-carbinol | 8.3 | 185 | 63.6 | 118 | 205 |
| A-769662 and vorinostat | 129 | 106 | 134 | 275 | 111 |
| perifosine and tanespimycin | 274 | 204 | 267 | 89.0 | 127 |
| vismodegib and selumetinib | 198 | 145 | 100 | 186 | 127 |
| tanespimycin and VX-702 | 297 | 90.3 | 76.2 | 34.2 | 85.8 |
| selumetinib and fludarabine | 219 | 75.1 | 2930 | 1330 | 172 |
| fludarabine and vorinostat | 199 | 35.2 | 1270 | 1700 | 89.0 |
| perifosine and sunitinib | 112 | 203 | 182 | 157 | 86.4 |
| dovitinib and perifosine | 169 | 82.9 | 68.1 | 400 | 61.7 |
| A-769662 and pioglitazone | 131 | 156 | 192 | 78.0 | 21.3 |
| tanespimycin and T0901317 | 65.8 | 107 | 165 | 154 | 134 |
| pioglitazone and sunitinib | 81.5 | 166 | 170 | 77.4 | 112 |
| perifosine and selumetinib | 426 | 103 | 104 | 136 | 83.1 |
| fludarabine and indole-3-carbinol | 190 | 41.8 | 1500 | 6260 | 329 |
| OSI-906 and VX-702 | 124 | 84.4 | 133 | 87.8 | 140 |
| OSI-906 and dovitinib | 252 | 146 | 53.4 | 359 | 74.0 |
| lestaurtinib and OSI-906 | 170 | 95.0 | 91.2 | 408 | 83.3 |
| lestaurtinib and pioglitazone | 96.3 | 37.2 | 328 | 211 | 213 |
| sunitinib and OSI-906 | 144 | 122 | 70.6 | 128 | 122 |
| pioglitazone and fludarabine | 145 | 81.7 | 1280 | 2110 | 110 |
| VX-702 and fludarabine | 129 | 115 | 847 | 2570 | 66.2 |
| pioglitazone and tanespimycin | 142 | 738 | 224 | 89.7 | 63.7 |
| T0901317 and NVP-TAE684 | 158 | 167 | 172 | 209 | 219 |
| T0901317 and perifosine | 336 | 165 | 169 | 118 | 66.9 |
| FH535 and VX-702 | 101 | 51.7 | 96.9 | 90.5 | 150 |
| tanespimycin and NVP-TAE684 | 495 | 162 | 169 | 121 | 61.8 |
| vismodegib and vorinostat | 46.1 | 209 | 161 | 198 | 266 |
| tanespimycin and sunitinib | 196 | 684 | 96.0 | 346 | 223 |
| pioglitazone and perifosine | 195 | 51.8 | 91.8 | 247 | 158 |
| FH535 and T0901317 | 116 | 45.4 | 203 | 96.9 | 53.8 |
| indole-3-carbinol and dovitinib | 79.4 | 227 | 46.3 | 161 | 84.6 |
| vismodegib and OSI-906 | 71.0 | 82.3 | 51.7 | 31.2 | 101 |
| vorinostat and tanespimycin | 170 | 156 | 39.2 | 111 | 90.9 |
| perifosine and vismodegib | 502 | 48.4 | 74.5 | 43.0 | 52.4 |
| VX-702 and dovitinib | 128 | 54.7 | 108 | 258 | 333 |
| selumetinib and T0901317 | 338 | 1070 | 147 | 99.8 | 186 |
| VX-702 and sunitinib | 195 | 137 | 93.5 | 99.2 | 190 |
| dovitinib and A-769662 | 121 | 457 | 109 | 304 | 89.0 |

2 of the entries, repeated:

{"pair": "OSI-906 and VX-702", "UACC-62": 124, "WM451Lu": 84.4, "SK-MEL-28": 133, "SK-MEL-2": 87.8, "IPC-298": 140}
{"pair": "pioglitazone and fludarabine", "UACC-62": 145, "WM451Lu": 81.7, "SK-MEL-28": 1280, "SK-MEL-2": 2110, "IPC-298": 110}